# Reference: patent US20250108054A1, “METHODS FOR TREATING PERSISTENT OR CHRONIC IMMUNE THROMBOCYTOPENIA IN CHILDREN, ADOLESCENTS AND ADULTS BY ADMINISTERING (R)-2-[3-[4-AMINO-3-(2-FLUORO-4-PHENOXY-PHENYL)PYRAZOLO[3,4-D]PYRIMIDIN-1-YL]PIPERIDINE-1-CARBONYL]-4-METHYL-4-[4-(OXETAN-3-YL)PIPERAZIN-1-YL]PENT-2-ENENITRILE” (Principia Biopharma Inc., priority 2023, published 2025)
# For at least one compound, name, drawing or mass did not settle the structure.
# Tested on: 251 kinases
# Test: broad kinase enzyme inhibition panel
# Type: biochemical
# Settings: 1 μM; of 251 kinases
smiles,measurement,value
"C=CC(=O)N1CCC[C@@H](n2nc(-c3ccc(Oc4ccccc4)cc3)c3c(N)ncnc32)C1 [ibrutinib, reference compound]",number of kinases with >90% inhibition,21
